Measurements published in US6737240B1, “Methods of screening for a multi-drug resistance conferring peptide” (Rigel Pharmaceuticals, Inc., priority 1999, dated 2004).
These are yes or no findings as the source states them, for the method shown. In cells and extracts the contact can be indirect. Some entries that bind do so weakly or less than the wild type.

Sequences of proteins named here, by UniProt entry; tags and fusion partners are left off. A change or cut given only in a name is not applied to a line headed by its entry.
UniProt O14818: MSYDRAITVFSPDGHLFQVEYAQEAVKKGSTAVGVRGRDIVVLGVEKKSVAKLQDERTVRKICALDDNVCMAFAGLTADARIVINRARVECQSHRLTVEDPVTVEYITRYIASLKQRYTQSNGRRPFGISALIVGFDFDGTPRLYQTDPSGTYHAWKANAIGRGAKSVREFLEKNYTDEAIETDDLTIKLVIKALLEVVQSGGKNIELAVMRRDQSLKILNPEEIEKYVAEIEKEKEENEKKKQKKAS
UniProt P28066: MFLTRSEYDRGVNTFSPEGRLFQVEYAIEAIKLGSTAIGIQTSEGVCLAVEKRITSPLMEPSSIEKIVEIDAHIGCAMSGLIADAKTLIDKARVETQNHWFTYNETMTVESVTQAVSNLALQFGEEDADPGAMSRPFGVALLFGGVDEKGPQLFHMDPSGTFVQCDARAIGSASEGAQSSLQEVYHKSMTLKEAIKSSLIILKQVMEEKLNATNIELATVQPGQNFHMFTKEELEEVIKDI

Key:
[1] = molecular target: endogenous XAPC7 proteasome subunit of HeLa cell extract (human) (UniProt O14818); assay: pull-down from HeLa cell extract with biotinylated peptide on streptavidin agarose beads, western blot with anti-XAPC7
[2] = molecular target: endogenous Zeta proteasome subunit of HeLa cell extract (human) (UniProt P28066); assay: pull-down from HeLa cell extract with biotinylated peptide on streptavidin agarose beads, western blot with anti-Zeta
[3] = molecular target: endogenous Zeta proteasome subunit of HeLa cell extract (human) (UniProt P28066); assay: pull-down from HeLa cell extract with biotinylated peptide on streptavidin agarose beads, western blot with anti-Zeta (FIG. 4B legend)
[4] = molecular target: endogenous XAPC7 proteasome subunit of HeLa cell extract (human) (UniProt O14818); assay: pull-down from HeLa cell extract with biotinylated peptide on streptavidin agarose beads, western blot with anti-XAPC7 (FIG. 4B legend)

Measured: binding

MGEFLIVKVWGRMVCWVLVVRRFVLVIVLENSLSSNQGPPZ (biotin at the N-terminus through an aminocaproic acid (Acap) spacer) [biotinylated RG8.5 peptide]
binds: all assays above
